Test results published in patent US20040234982A1 (published 2004).

Target: T1, T/EBP/NKX2.1 (TTF1) (UniProt P23441)
T1 sequence (looked up, limits assumed): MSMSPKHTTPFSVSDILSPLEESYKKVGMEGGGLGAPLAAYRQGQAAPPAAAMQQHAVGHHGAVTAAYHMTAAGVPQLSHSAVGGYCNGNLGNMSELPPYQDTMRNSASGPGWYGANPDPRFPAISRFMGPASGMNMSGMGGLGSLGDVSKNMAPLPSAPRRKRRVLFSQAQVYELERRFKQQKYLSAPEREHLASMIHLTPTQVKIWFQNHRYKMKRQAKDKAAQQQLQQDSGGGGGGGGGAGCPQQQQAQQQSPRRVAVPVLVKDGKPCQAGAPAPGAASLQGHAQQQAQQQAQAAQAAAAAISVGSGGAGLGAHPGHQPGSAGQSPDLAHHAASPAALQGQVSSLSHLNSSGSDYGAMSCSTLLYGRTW
Test: footprint
Conditions: four protected regions; 2 ug protein; purified recombinant protein; protein details: bacterially expressed from pET-30a(+)-T/EBP/NKX2.1

## TATAGGAAAGCATTCCTCTCAAACCCAACAGAAAGCCTTCACATCTGCTTTAGTGTTCTTCCAGGGGGAAATCCTTTGCCGTCTGTCATCATTTCTATGCTAGGGCTTGGGAAAGAACTACTTGAGACTACTTCTGTGAACAGCTTTGTTTCTCACGAGAATGTGATGAAAAGTGGAAAACCCTTCAGAATGTTTAGTTAGGAAGATTGCCCTGCATGCTCTTCTTTGCTGGGGTAAGTCAACAGGCAGTGGTTGAAATTCAGGTCTTCAGTGCATATATTAGTACCTCTGAGGAAAAGCAGCCATCAGGTGACAGCGAGCAGAACTATTGACACCGTGATTTTGTTGGG (double strand) [mouse UGRP1 promoter 307-bp fragment]
  binding result: binds

Construct, isoform or probe ends are uncertain for at least one entry. Where a protein sequence is shown, tags need not be part of it.
